The results in this text go back to PubChem BioAssay AID434947 (Broad Institute, 2010).

The whole screen tested about 2,200 compounds, of which about 15 (0.7%) were called active.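 Rule for the calls: active = fitted half-maximal concentration for loss of luminescence signal no more than a set limit of log units above the top tested concentration; inconclusive = flat fit with 30 to 70% signal loss, or invalid fit; inactive = half-maximal concentration above that set limit.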 This is one part of the list.

The nature of this assay: inhibitors of ADP-Glo detection reagents, dose response, artefact control for GSK3beta inhibitor project, biochemical, luminescence, cell-free, homogeneous (AID 434947).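 Note: kinase-free counter screen of ADP-Glo detection reagents for GSK3beta hits.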 Particulars: 5 uM ADP.
Regarding `O=C(CN1C(=O)CCC1=O)Nc1cccc2c1C(=O)NC2=O`, the EC50 (in general, the concentration that produces a half-maximal response) is inactive: > 30 µM.
The figure for `COc1cccc(C(=O)c2sc(NC(C)C)nc2N)c1` is inactive: > 30 µM; for `COCCn1nnnc1C(c1cc2cc(C)ccc2[nH]c1=O)N1CCc2ccccc21` (centres undefined) it is inactive: > 30 µM.
Then `COc1cc(/C=N\NC(=O)c2ccc(Cl)cc2)ccc1Oc1ccc([N+](=O)[O-])cn1`, with inactive: > 30 µM.
Then `COc1ccc(Nc2nc(N)c([N+](=O)[O-])c(NCc3ccccc3)n2)cc1`, with inactive: > 30 µM.
With `Fc1cccc(Nc2ncnc3[nH]ncc23)c1`, the EC50 is inactive: > 30 µM.
The figure for `COc1ccc(-c2ccc3c(N)c(C(=O)c4cccc(OC)c4)sc3n2)cc1` is inactive: > 30 µM; for `CCOC(=O)/C(C#N)=C/c1cn(CCC(=O)O)nc1-c1cccc(Cl)c1` it is inactive: > 30 µM.
Then `COc1ccc(N2CC(C(=O)Nc3cc(C)ccn3)CC2=O)cc1` (centres undefined), with inactive: > 30 µM; and `Cn1c(SCc2nnc(-c3ccc(F)cc3)o2)nnc1C1COc2ccccc2O1` (centres undefined), with inactive: > 30 µM.
Then `CN1CCN(/N=C2/C(=O)Nc3ccc([N+](=O)[O-])cc32)CC1`, with inactive: > 30 µM; and `Cc1c(/C=N/NC(=O)COc2ccccc2[N+](=O)[O-])c2ccccc2n1C`, with inactive: > 30 µM.
As for `COc1cccc2cc(C(=O)OC(C)C(=O)c3ccc(C)cc3)c(=O)oc12` (centres undefined), the EC50 was inactive: > 30 µM.
Then `N#CCCSc1nc(N2CCOCC2)c2c(c1C#N)CCCC2`, with inactive: > 30 µM; and `COC(=O)C1=C(C)N(Cc2ccccc2)C(=NCc2ccc(OC)cc2)N[C@H]1c1cccc(F)c1`, with inactive: > 30 µM; and `O=C(Nc1cccc(F)c1)c1cccc2c1C(=O)N(C1CCCCC1)C2`, with inactive: > 30 µM.
For the compound `CC(=O)N1CCc2c(sc(NC(=O)C3CCCN3S(=O)(=O)c3cccs3)c2C(N)=O)C1` (centres undefined), the EC50 was inactive: > 30 µM.
Consider `C[C@]12C=CC(=O)C=C1CC[C@@H]1C2[C@@H](O)C[C@@]2(C)C1CC[C@]2(O)C(=O)COC(=O)CCC(=O)O` (some centres undefined), for which the EC50 was inactive: > 30 µM.
With `N#Cc1c(-c2ccccc2)nc(-c2ccncc2)[nH]c1=O`, the EC50 is inactive: > 30 µM.
Consider `COc1ccc(S(=O)(=O)NCC(c2ccc3c(c2)OCO3)N2CCOCC2)cc1` (centres undefined), for which the EC50 is inactive: > 30 µM.
As for `CC1=C(C(=O)OCC2CCCO2)C(c2ccc(O)cc2)NC(=O)N1` (centres undefined), the EC50 is inactive: > 30 µM.
Then `C/C(=N\Nc1nccnc1Cl)c1ccc(Br)cc1`, with inactive: > 30 µM; and `CC(=O)Nc1c(-c2ccccc2)nc2ccc(Cl)cn12`, with inactive: > 30 µM; and `COc1ccc(-c2nn(-c3ccccc3)cc2CO)cc1OC`, with inactive: > 30 µM.
Then `O=C(COC(=O)C1CCN(/C=C/C(=O)C(F)(F)F)CC1)Nc1ccccc1`, with inactive: > 30 µM.
As to `N#CC(=C=[N-])c1nc2ccccc2nc1-[n+]1cccc(NC(=O)c2ccccc2)c1`, the EC50 was inactive: > 30 µM.
The figure for `COc1ccc2cc(C(=O)C3CCCN(C(=O)c4sc(C)nc4C)C3)ccc2c1` (centres undefined) is inactive: > 30 µM.
As to `COc1ccc(/C=C2/Sc3ccc(C(=O)NCCN4CCCCCC4)cc3NC2=O)cc1`, the EC50 is inactive: > 30 µM.
The figure for `O=c1cc(-c2ccccc2Cl)oc2cccc(O)c12` is inactive: > 30 µM.
The figure for `Cc1nc2[nH]c(=O)c3c(n2n1)NC1=C(C(=O)CC(C)(C)C1)C3c1ccc(F)cc1` (centres undefined) is inactive: > 30 µM; for `Cc1cc(C)c(C#N)c(SCC(=O)c2ccc(Cl)cc2Cl)n1` it is inactive: > 30 µM; for `O=C(CC1SC(N2CCCCC2)=NC1=O)Nc1cccc(C(F)(F)F)c1` (centres undefined) it is inactive: > 30 µM.
`CC(C)Nc1nc(N)c(C(=O)C23CC4CC(CC(C4)C2)C3)s1`: the EC50 was inactive: > 30 µM.
Then `CCCn1nc(NC(=O)C(C)(C)C)c2cc3cc(OC)ccc3nc21`, with inactive: > 30 µM; and `CCOC(=O)CC(=O)CSc1ccc2nnc(-c3cccc(F)c3)n2n1`, with inactive: > 30 µM.
Then `CCOC(=O)c1nnn(-c2nonc2N)c1-c1ccc(OC)cc1`, with inactive: > 30 µM; and `CCO[C@H]1OC(C(=O)N2CCN(Cc3ccccc3)CC2)=C[C@@H](C)[C@@H]1CCCO`, with inactive: > 30 µM; and `COc1cccc(C2C3=C(CCCC3=O)Nc3[nH]n(-c4ccccc4)c(=O)c32)c1` (centres undefined), with inactive: > 30 µM.
Then `O=[N+]([O-])c1ccccc1/C=N/n1c(C2CCCCC2)n[nH]c1=S`, with inactive: > 30 µM; and `COc1ccc(-n2c(Cc3cccn3C)nnc2SCC(=O)NCC2CCCO2)cc1` (centres undefined), with inactive: > 30 µM.
`O=C(Nc1cccc(F)c1)Nc1ccccn1`: the EC50 is inactive: > 30 µM.
Consider `CCCn1cc(SCC(=O)NCc2ccco2)c2ccccc21`, for which the EC50 was inactive: > 30 µM.
With `c1ccc(CCCCNCC2COc3ccccc3O2)cc1` (centres undefined), the EC50 was inactive: > 30 µM.
The figure for `O=C(c1ccc(Cl)nc1)N1CCN(C/C=C/c2ccccc2)CC1` is inactive: > 30 µM; for `CCc1ccc(NC(=O)C(NS(=O)(=O)c2cccc3nsnc23)c2ccccc2)cc1` (centres undefined) it is inactive: > 30 µM.
Turning to `CC(=O)Nc1ccc(C(=O)OCCCOC(=O)c2ccc(NC(C)=O)cc2)cc1`, the EC50 is inactive: > 30 µM.
The figure for `Cc1ccc(NC2=CC(=O)CC(C)(C)C2)cc1C` is inactive: > 30 µM; for `CCCCCCSc1ccc([C@H]2N[C@@](CC(C)C)(C(=O)OC)[C@H]3C(=O)N(C)C(=O)[C@@H]23)cc1` it is inactive: > 30 µM.
For `Cc1cccc(C(=O)NC2CC3CCCC(C2)N3Cc2ccccc2)c1` (centres undefined), the EC50 is inactive: > 30 µM.
In the case of `CCc1ccc(C2CC(c3ccc(C)cc3)Nc3nc(N)nn32)cc1` (centres undefined), the EC50 was inactive: > 30 µM.
The figure for `CCOC(=O)c1c(-c2ccc(C)o2)csc1N` is inactive: > 30 µM; for `CCCn1nc(NC(=O)c2cccs2)c2cc3cccc(C)c3nc21` it is inactive: > 30 µM.
The figure for `CC(C)(C)c1csc(NC(=O)c2cccnc2)n1` is inactive: > 30 µM; for `CCOC(=O)c1sc(Nc2ccccc2)nc1C` it is inactive: > 30 µM; for `Fc1ccc(CSc2nnc(-c3ccccn3)o2)cc1` it is inactive: > 30 µM.
Then `Nc1nonc1-n1nnc(C(=O)N/N=C/c2ccc(OCc3ccccc3F)cc2)c1CN1CCCCC1`, with inactive: > 30 µM; and `COCCn1c(SCC(=O)Nc2ccc(Cl)c(S(=O)(=O)N(C)C)c2)nc2ccccc21`, with inactive: > 30 µM; and `Nc1nc(Nc2cccc(Cl)c2)nc(NCCO)c1[N+](=O)[O-]`, with inactive: > 30 µM.
In the case of `CN1CCc2c(sc3c2C(=O)NC(c2cccs2)N3)C1` (centres undefined), the EC50 is inactive: > 30 µM.
The figure for `O=C(CCS(=O)(=O)Cc1ccccc1)Nc1ncc([N+](=O)[O-])s1` is inactive: > 30 µM; for `Cc1ccc(OCC(=O)N/N=C\c2ccc(O)cc2)c([N+](=O)[O-])c1` it is inactive: > 30 µM.
Then `COc1cc(C2C(C#N)=C(C)NC3=C2C(=O)CC(C)(C)C3)ccc1O` (centres undefined), with inactive: > 30 µM.
The figure for `CC(=O)N1CCc2c(sc(NC(=O)CS(=O)(=O)c3ccc(F)cc3)c2C(N)=O)C1` is inactive: > 30 µM; for `CN(C)C(CNC(=O)c1ccc2ccccc2c1)c1ccco1` (centres undefined) it is inactive: > 30 µM; for `CSc1nc(SCC(=O)NC(c2ccccc2)c2ccccc2)c2c3c(sc2n1)CN(C)CC3` it is inactive: > 30 µM.
Consider `O=c1cc(-c2ccncc2)oc2ccccc12`, for which the EC50 is inactive: > 30 µM.
Then `COC(=O)c1cc(C(=O)Nc2cc(C)ccn2)cc([N+](=O)[O-])c1`, with inactive: > 30 µM; and `c1ccc(CSc2ccc3nnc(-c4ccccn4)n3n2)cc1`, with inactive: > 30 µM.
The figure for `COc1ccccc1N(CC(=O)N1CCc2ccccc2C1)S(C)(=O)=O` is inactive: > 30 µM; for `O=C(Cc1ccc([N+](=O)[O-])cc1)Nc1ccc2c(c1)C(=O)NC2=O` it is inactive: > 30 µM; for `CC1CN(c2nc(Nc3ccccc3)nc(N)c2[N+](=O)[O-])CC(C)O1` (centres undefined) it is inactive: > 30 µM.
As for `CC(C)(C)C(=O)COC(=O)c1ccc(O)cc1`, the EC50 was inactive: > 30 µM.
Then `O=C(C1CCCN(S(=O)(=O)c2ccccc2)C1)N1CCN(c2ncccn2)CC1` (centres undefined), with inactive: > 30 µM.
As to `COc1cccc(OC)c1OCCNCC1COc2ccccc2O1` (centres undefined), the EC50 is inactive: > 30 µM.
The figure for `CCOC(=O)C1CCN(c2cc(C)nc3ccc(OC)cc23)CC1` is inactive: > 30 µM; for `Cc1ccc(NC(=O)C2CCN(S(=O)(=O)c3ccc4c(c3)NC(=O)C(C)S4)CC2)c(Cl)c1` (centres undefined) it is inactive: > 30 µM; for `Nc1nc(NCc2ccccc2)nc(Nc2cccc(F)c2)c1[N+](=O)[O-]` it is inactive: > 30 µM.
The figure for `O=C(CN(Cc1ccc(F)cc1)C(=O)CCC(=O)Nc1ccccn1)NCc1ccc(F)cc1` is inactive: > 30 µM.
Then `O=C(Cc1ccc(F)cc1)N/N=C/c1ccc(-c2ccc(Cl)c(C(=O)O)c2)o1`, with inactive: > 30 µM; and `COc1ccc(N2C(=O)C3CCCN3C2c2ccccc2F)cc1` (centres undefined), with inactive: > 30 µM; and `O=C(CN(Cc1cccs1)C(=O)CCC(=O)Nc1nccs1)NCc1ccccc1`, with inactive: > 30 µM.
As to `CCOC(=O)C1=C(C)Nc2ncnn2C1c1cccs1` (centres undefined), the EC50 is inactive: > 30 µM.
With `COc1cc(C2OCC3C(c4cc(OC)c(OC)c(OC)c4)OCC23)cc(OC)c1OC` (centres undefined), the EC50 is inactive: > 30 µM.
The figure for `Cc1ccc2c(c1)cc1c(=O)n(CC(=O)NCCN3CCCC3)nc(C)n12` is inactive: > 30 µM.
Then `CCn1c(COc2ccccc2)nnc1SCC(=O)NC1CC1`, with inactive: > 30 µM.
The figure for `CCN(CC)S(=O)(=O)c1cccc(NC(=O)COc2ccc(Cl)cc2Br)c1` is inactive: > 30 µM; for `CCSc1ccc2nnc(-c3ccc(F)cc3)n2n1` it is inactive: > 30 µM; for `O=C(O/N=C\c1ccc(N2CCCCC2)c([N+](=O)[O-])c1)c1cccc(Cl)c1` it is inactive: > 30 µM.
Turning to `COC1=C/C(=C/c2c(N)n3cc(C)sc3nc2=O)C=CC1=O`, the EC50 was inactive: > 30 µM.
